The supplement of paper PMC4604168 (melanoma cell lines)
The list shows a part of the results. Repeats are few or missing, and single values can be far off.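 The apoptosis fraction was the count of cleaved-PARP antibody-stained nuclei relative to all DNA-stained nuclei, imaged in 1,536-well plates. Screening doses were set so most cells survived, and baseline and induced cleaved-PARP levels vary greatly across cell lines.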

Tested on: COLO829
Experiment: cleaved PARP positive nuclei fraction relative to DMSO control; melanoma cells; higher = more apoptosis
Conditions: library dose: low library concentration; 72 h

Structure (SMILES) | cleaved PARP positive nuclei fraction [%]
CC[C@]1(O)C[C@H]2CN(CCc3c([nH]c4ccccc34)[C@@](C(=O)OC)(c3cc4c(cc3OC)N(C=O)[C@H]3[C@@](O)(C(=O)OC)[C@H](OC(C)=O)[C@]5(CC)C=CCN6CC[C@]43[C@@H]65)C2)C1 [vincristine] + CO[C@H]1C[C@@H]2CC[C@@H](C)[C@@](O)(O2)C(=O)C(=O)N2CCCC[C@H]2C(=O)O[C@H]([C@H](C)C[C@@H]2CC[C@@H](OCCO)[C@H](OC)C2)CC(=O)[C@H](C)/C=C(\C)[C@@H](O)[C@@H](OC)C(=O)[C@H](C)C[C@H](C)/C=C/C=C/C=C/1C [everolimus] (first compound 0.0001 µM, partner dose 0.02 µM) | 120
COc1cc([C@@H]2c3cc4c(cc3[C@@H](O[C@@H]3O[C@@H]5CO[C@@H](C)O[C@H]5[C@H](O)[C@H]3O)[C@H]3COC(=O)[C@H]23)OCO4)cc(OC)c1O [etoposide] + CC1(C)CCC(c2ccc(Cl)cc2)=C(CN2CCN(c3ccc(C(=O)NS(=O)(=O)c4ccc(N[C@H](CCN5CCOCC5)CSc5ccccc5)c(S(=O)(=O)C(F)(F)F)c4)cc3)CC2)C1 [ABT263] (first compound 0.02 µM, partner dose 0.4 µM) | 50.7
CC[C@]1(O)C[C@H]2CN(CCc3c([nH]c4ccccc34)[C@@](C(=O)OC)(c3cc4c(cc3OC)N(C=O)[C@H]3[C@@](O)(C(=O)OC)[C@H](OC(C)=O)[C@]5(CC)C=CCN6CC[C@]43[C@@H]65)C2)C1 [vincristine] + NC(=O)c1ccc(N(C(N)=O)c2c(F)cccc2F)nc1-c1ccc(F)cc1F [VX702] (first compound 0.0001 µM, partner dose 0.4 µM) | 169
Cc1ccc(Nc2nccc(N(C)c3ccc4c(C)n(C)nc4c3)n2)cc1S(N)(=O)=O [Pazopanib] + C=CCNC1=C2C[C@@H](C)C[C@H](OC)[C@H](O)[C@@H](C)/C=C(\C)[C@H](OC(N)=O)[C@@H](OC)/C=C\C=C(/C)C(=O)NC(=CC1=O)C2=O [Tanespimycin] (first compound 0.4 µM, partner dose 0.002 µM) | 108
O=C(Nc1cc(C(F)(F)F)cc(C(F)(F)F)c1)c1cc(Cl)ccc1O + Cn1c(=O)n(-c2ccc(C(C)(C)C#N)cc2)c2c3cc(-c4cnc5ccccc5c4)ccc3ncc21 [NVP-BEZ235] (first compound 0.016 µM, partner dose 0.004 µM) | 122
Cc1cn(-c2cc(NC(=O)c3ccc(C)c(Nc4nccc(-c5cccnc5)n4)c3)cc(C(F)(F)F)c2)cn1 [nilotinib] + Cc1nc(Nc2ncc(C(=O)Nc3c(C)cccc3Cl)s2)cc(N2CCN(CCO)CC2)n1 [dasatanib] (first compound 0.2 µM, partner dose 0.004 µM) | 118
Cc1cc(Nc2cc(N3CCN(C)CC3)nc(Sc3ccc(NC(=O)C4CC4)cc3)n2)n[nH]1 [Tozasertib] + O=C(O)c1ccc2c(c1)nc(Nc1cccc(Cl)c1)c1ccncc12 [CX4945] (first compound 0.006 µM, partner dose 0.4 µM) | 86.4
O=C(Nc1cc(C(F)(F)F)cc(C(F)(F)F)c1)c1cc(Cl)ccc1O + CO[C@H]1C[C@@H]2CC[C@@H](C)[C@@](O)(O2)C(=O)C(=O)N2CCCC[C@H]2C(=O)O[C@H]([C@H](C)C[C@@H]2CC[C@@H](OCCO)[C@H](OC)C2)CC(=O)[C@H](C)/C=C(\C)[C@@H](O)[C@@H](OC)C(=O)[C@H](C)C[C@H](C)/C=C/C=C/C=C/1C [everolimus] (first compound 0.016 µM, partner dose 0.02 µM) | 108
Cc1cc(Nc2cc(N3CCN(C)CC3)nc(Sc3ccc(NC(=O)C4CC4)cc3)n2)n[nH]1 [Tozasertib] + Nc1cccc2c1CN(C1CCC(=O)NC1=O)C2=O [lenalidomide] (first compound 0.006 µM, partner dose 1 µM) | 158
O=C(Nc1cc(C(F)(F)F)cc(C(F)(F)F)c1)c1cc(Cl)ccc1O + Cn1nnc2c(C(N)=O)ncn2c1=O [temozolomide] (first compound 0.016 µM, partner dose 2 µM) | 169
COc1cc([C@@H]2c3cc4c(cc3[C@@H](O[C@@H]3O[C@@H]5CO[C@@H](C)O[C@H]5[C@H](O)[C@H]3O)[C@H]3COC(=O)[C@H]23)OCO4)cc(OC)c1O [etoposide] + Cn1sc(=O)n(Cc2ccccc2)c1=O [TDZD-8] (first compound 0.02 µM, partner dose 0.4 µM) | 106
Cc1cn(-c2cc(NC(=O)c3ccc(C)c(Nc4nccc(-c5cccnc5)n4)c3)cc(C(F)(F)F)c2)cn1 [nilotinib] + Nc1nc(F)nc2c1ncn2[C@@H]1O[C@H](CO)[C@@H](O)[C@@H]1O [fludarabine] (first compound 0.2 µM, partner dose 0.2 µM) | 140
O=c1[nH]nc(Sc2ncc([N+](=O)[O-])s2)n1-c1ccc2c(c1)OCCO2 + CO[C@H]1C[C@@H]2CC[C@@H](C)[C@@](O)(O2)C(=O)C(=O)N2CCCC[C@H]2C(=O)O[C@H]([C@H](C)C[C@@H]2CC[C@@H](OCCO)[C@H](OC)C2)CC(=O)[C@H](C)/C=C(\C)[C@@H](O)[C@@H](OC)C(=O)[C@H](C)C[C@H](C)/C=C/C=C/C=C/1C [everolimus] (first compound 0.2 µM, partner dose 0.02 µM) | 181
O=c1[nH]nc(Sc2ncc([N+](=O)[O-])s2)n1-c1ccc2c(c1)OCCO2 + Cn1nnc2c(C(N)=O)ncn2c1=O [temozolomide] (first compound 0.2 µM, partner dose 2 µM) | 56.1
Cc1cc(Nc2cc(N3CCN(C)CC3)nc(Sc3ccc(NC(=O)C4CC4)cc3)n2)n[nH]1 [Tozasertib] + C[C@@H](Oc1cc(-c2cnn(C3CCNCC3)c2)cnc1N)c1c(Cl)ccc(F)c1Cl [Crizotinib] (first compound 0.006 µM, partner dose 0.2 µM) | 155
O=c1[nH]nc(Sc2ncc([N+](=O)[O-])s2)n1-c1ccc2c(c1)OCCO2 + NC(=O)c1ccc(N(C(N)=O)c2c(F)cccc2F)nc1-c1ccc(F)cc1F [VX702] (first compound 0.2 µM, partner dose 0.4 µM) | 42.7
Cc1ccc(Nc2nccc(N(C)c3ccc4c(C)n(C)nc4c3)n2)cc1S(N)(=O)=O [Pazopanib] + CO[C@H]1C[C@@H]2CC[C@@H](C)[C@@](O)(O2)C(=O)C(=O)N2CCCC[C@H]2C(=O)O[C@H]([C@H](C)C[C@@H]2CC[C@@H](OCCO)[C@H](OC)C2)CC(=O)[C@H](C)/C=C(\C)[C@@H](O)[C@@H](OC)C(=O)[C@H](C)C[C@H](C)/C=C/C=C/C=C/1C [everolimus] (first compound 0.4 µM, partner dose 0.02 µM) | 88.9
Cc1ccc(Nc2nccc(N(C)c3ccc4c(C)n(C)nc4c3)n2)cc1S(N)(=O)=O [Pazopanib] + CCCS(=O)(=O)Nc1ccc(F)c(C(=O)c2c[nH]c3ncc(Cl)cc23)c1F [PLX4720] (first compound 0.4 µM, partner dose 0.08 µM) | 88.2
N#CC[C@H](C1CCCC1)n1cc(-c2ncnc3[nH]ccc23)cn1 [ruxolitinib] + OCc1c[nH]c2ccccc12 [Indole-3-carbinol] (first compound 1 µM, partner dose 0.8 µM) | 147
Cc1ccc(Nc2nccc(N(C)c3ccc4c(C)n(C)nc4c3)n2)cc1S(N)(=O)=O [Pazopanib] + OCc1c[nH]c2ccccc12 [Indole-3-carbinol] (first compound 0.4 µM, partner dose 0.8 µM) | 110
COc1cc([C@@H]2c3cc4c(cc3[C@@H](O[C@@H]3O[C@@H]5CO[C@@H](C)O[C@H]5[C@H](O)[C@H]3O)[C@H]3COC(=O)[C@H]23)OCO4)cc(OC)c1O [etoposide] + C[C@]1(O)C[C@@H](c2nc(-c3ccc4ccc(-c5ccccc5)nc4c3)c3c(N)nccn32)C1 [OSI906] (first compound 0.02 µM, partner dose 0.4 µM) | 71.9
N#CC[C@H](C1CCCC1)n1cc(-c2ncnc3[nH]ccc23)cn1 [ruxolitinib] + CO[C@H]1C[C@@H]2CC[C@@H](C)[C@@](O)(O2)C(=O)C(=O)N2CCCC[C@H]2C(=O)O[C@H]([C@H](C)C[C@@H]2CC[C@@H](OCCO)[C@H](OC)C2)CC(=O)[C@H](C)/C=C(\C)[C@@H](O)[C@@H](OC)C(=O)[C@H](C)C[C@H](C)/C=C/C=C/C=C/1C [everolimus] (first compound 1 µM, partner dose 0.02 µM) | 93
Cc1ccc(Nc2nccc(N(C)c3ccc4c(C)n(C)nc4c3)n2)cc1S(N)(=O)=O [Pazopanib] + Cn1nnc2c(C(N)=O)ncn2c1=O [temozolomide] (first compound 0.4 µM, partner dose 2 µM) | 151
O=c1[nH]nc(Sc2ncc([N+](=O)[O-])s2)n1-c1ccc2c(c1)OCCO2 + CCCS(=O)(=O)Nc1ccc(F)c(C(=O)c2c[nH]c3ncc(Cl)cc23)c1F [PLX4720] (first compound 0.2 µM, partner dose 0.08 µM) | 76.4
Cc1ccc(Nc2nccc(N(C)c3ccc4c(C)n(C)nc4c3)n2)cc1S(N)(=O)=O [Pazopanib] + CC(=O)c1c(C)c2cnc(Nc3ccc(N4CCNCC4)cn3)nc2n(C2CCCC2)c1=O [palbociclib] (first compound 0.4 µM, partner dose 0.04 µM) | 185

Two entries picked at random from those above:
Structure (SMILES) | cleaved PARP positive nuclei fraction [%]
CC[C@]1(O)C[C@H]2CN(CCc3c([nH]c4ccccc34)[C@@](C(=O)OC)(c3cc4c(cc3OC)N(C=O)[C@H]3[C@@](O)(C(=O)OC)[C@H](OC(C)=O)[C@]5(CC)C=CCN6CC[C@]43[C@@H]65)C2)C1 [vincristine] + CO[C@H]1C[C@@H]2CC[C@@H](C)[C@@](O)(O2)C(=O)C(=O)N2CCCC[C@H]2C(=O)O[C@H]([C@H](C)C[C@@H]2CC[C@@H](OCCO)[C@H](OC)C2)CC(=O)[C@H](C)/C=C(\C)[C@@H](O)[C@@H](OC)C(=O)[C@H](C)C[C@H](C)/C=C/C=C/C=C/1C [everolimus] (first compound 0.0001 µM, partner dose 0.02 µM) | 120
Cc1cn(-c2cc(NC(=O)c3ccc(C)c(Nc4nccc(-c5cccnc5)n4)c3)cc(C(F)(F)F)c2)cn1 [nilotinib] + Nc1nc(F)nc2c1ncn2[C@@H]1O[C@H](CO)[C@@H](O)[C@@H]1O [fludarabine] (first compound 0.2 µM, partner dose 0.2 µM) | 140
